Measurements from PubChem BioAssay AID504834 (National Center for Advancing Translational Sciences (NCATS), 2011).
Out of some 320,000 compounds screened, about 22,000 (6.9%) were called active. Inconclusive results, whose numbers are uncertain, are shown with a selection of clear calls. Calls follow the shape of the dose curve; as a rule, active = well fitted inhibition curve with a large enough effect; inconclusive = small, poorly fitted or top-dose-only effect, or another doubt; inactive = no such curve, though single readings can be large or run the other way. A potency beside an inconclusive call is a rough fit, not a confirmed value.

experiment: Primary qHTS for delayed death inhibitors of the malarial parasite plastid, 96 hour incubation; settings: P. falciparum luciferase reporter growth; series mostly up to 28.7 µM; activity change, negative = inhibition: at the top concentration
In short: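 Plates of compound plus infected erythrocytes (2% hematocrit, 0.05% parasitemia final) incubate 96 hours, 37 C, 5% CO2. Detection reagent added; reduced luminescence from the parasites' luciferase reporter flags inhibition.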
% is scaled to controls: 0 for no effect and ±100 for the full control effect; potency is read from the fitted curve at half-maximal effect.

Compound | activity change, negative = inhibition | Potency
CC(CCc1ccccc1)NC(=O)c1ccccc1C(=O)O (stereo not drawn) | inactive: -0.484% | 
N#CCOc1coc(CN2CCN(c3cccc(Cl)c3)CC2)cc1=O |  | inconclusive: 16.5 µM [inhibitor, partial curve, poor fit]
S=C(c1ccc2c(c1)OCO2)N1CCOCC1 | inactive: -7.32% | 
CCc1ccc(CN(C)Cc2nc(COc3ccccc3)no2)nc1 |  | inconclusive: 18.5 µM [inhibitor, single point]
COCCCNC(=O)/C=C/c1ccc(OCc2c(F)cccc2Cl)cc1 |  | inconclusive: 6.57 µM [inhibitor, partial curve, poor fit]
Cc1cc(C)cc(NC(=O)c2cnn(-c3ccccc3)c2C2CCNCC2)c1 |  | inconclusive: 16.5 µM [inhibitor, partial curve, poor fit]
COc1ccc(NC(=O)C(Cc2ccccc2)NC(=O)c2ccco2)cc1OC (stereo not drawn) |  | inconclusive: 9.28 µM [inhibitor, partial curve, poor fit]
CC(C)(C)C(=O)Nc1nnc(SCc2ccc(F)cc2)s1 | inactive: -40% | 
CCC1CCCCN1C(=O)c1c(-c2ccccc2)noc1C (stereo not drawn) |  | inconclusive: 16.5 µM [inhibitor, single point]
COc1ccc(-c2nc(NC(=O)C3=NN(c4cccc(C)c4)C(=O)CC3)sc2C)cc1 |  | inconclusive: 16.5 µM [inhibitor, single point]
COc1cc(-c2c(C#N)c(N)nc(SCc3ccncc3)c2C#N)cc(OC)c1OC |  | inconclusive: 14.7 µM [inhibitor, single point]
CN(C(=O)c1cncc(Br)c1)C1C2CC3CC(C2)CC1C3 (stereo not drawn) |  | inconclusive: 18.5 µM [inhibitor, single point]
COc1cccc(NS(=O)(=O)c2cc3c(cc2C)N(C(C)=O)CCO3)c1 |  | inconclusive: 1.65 µM [inhibitor, partial curve, poor fit]
O=C(C1=C[C@H](c2ccc(C(F)(F)F)cc2)C[C@H](OCc2ccc(CO)cc2)O1)N1CCN(Cc2ccccc2)CC1 |  | active: 13.1 µM
CC(C)C[C@H](NC(=O)N1CCn2c1nc1ccccc12)C(=O)N[C@H](Cc1ccccc1)C(=O)O |  | inconclusive: 5.86 µM [inhibitor, partial curve, poor fit]
O=C(O)COc1ccc2c(c1)OCCO2 |  | inconclusive: 13.1 µM [inhibitor, single point]
NC(=O)c1ccc(NC(=O)CCN2C(=O)c3ccccc3C2=O)cc1 | inactive: 3.79% | 
C=CCCCCCCCCC(=O)N1CCN(c2cc3c(cc2F)c(=O)c(C(=O)O)cn3CC)CC1 |  | inconclusive: 10.4 µM [inhibitor, single point]
